Measurements published in PMC12866682 (2025).
These are yes or no findings as the source states them, for the method shown. For some assays here: A result given as binding can be weak or reduced; the word gives no strength. For some assays here: Binding seen in cells or lysates may run through a third protein.

Sequences of proteins named here, by UniProt entry; tags and fusion partners are left off. A change or cut given only in a name is not applied to a line headed by its entry. Residues count along the entry.
UniProt Q9NZC2, residues 19-230: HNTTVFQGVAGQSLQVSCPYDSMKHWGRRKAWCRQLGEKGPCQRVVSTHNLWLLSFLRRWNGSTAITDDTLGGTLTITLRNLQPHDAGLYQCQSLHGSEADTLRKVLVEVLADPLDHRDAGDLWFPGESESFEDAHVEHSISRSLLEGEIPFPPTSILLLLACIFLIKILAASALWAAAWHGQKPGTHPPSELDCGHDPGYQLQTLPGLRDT
UniProt P08311: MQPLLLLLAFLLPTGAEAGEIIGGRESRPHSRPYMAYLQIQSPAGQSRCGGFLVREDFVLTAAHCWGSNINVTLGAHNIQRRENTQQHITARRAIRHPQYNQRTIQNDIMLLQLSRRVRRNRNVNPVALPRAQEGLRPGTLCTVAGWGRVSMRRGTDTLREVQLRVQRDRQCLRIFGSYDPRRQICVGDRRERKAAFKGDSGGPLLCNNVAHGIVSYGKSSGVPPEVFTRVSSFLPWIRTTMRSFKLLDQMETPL
UniProt P05164, residues 49-745: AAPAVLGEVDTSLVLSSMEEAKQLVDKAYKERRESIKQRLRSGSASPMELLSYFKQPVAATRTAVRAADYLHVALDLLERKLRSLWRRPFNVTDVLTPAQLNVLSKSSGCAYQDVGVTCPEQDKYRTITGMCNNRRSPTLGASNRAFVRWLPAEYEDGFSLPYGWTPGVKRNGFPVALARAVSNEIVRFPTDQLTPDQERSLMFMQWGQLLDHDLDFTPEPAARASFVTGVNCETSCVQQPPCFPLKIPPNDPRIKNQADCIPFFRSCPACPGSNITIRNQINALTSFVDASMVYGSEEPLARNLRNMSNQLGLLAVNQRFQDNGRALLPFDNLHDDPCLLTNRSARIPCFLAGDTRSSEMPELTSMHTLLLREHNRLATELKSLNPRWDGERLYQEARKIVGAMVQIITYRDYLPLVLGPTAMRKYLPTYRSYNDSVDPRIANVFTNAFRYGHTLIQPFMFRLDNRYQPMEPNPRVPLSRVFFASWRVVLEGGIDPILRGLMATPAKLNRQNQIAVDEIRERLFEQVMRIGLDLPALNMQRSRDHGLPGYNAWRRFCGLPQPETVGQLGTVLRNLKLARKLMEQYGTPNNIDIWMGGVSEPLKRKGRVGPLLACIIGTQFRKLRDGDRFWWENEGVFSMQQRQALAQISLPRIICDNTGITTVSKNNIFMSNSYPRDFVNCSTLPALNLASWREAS

How the values were obtained:
[1] = target: HA-tagged TREM2, WT (full length, FL) (UniProt Q9NZC2); assay: co-IP; HEK293T cells transfected with HA-tagged TREM2 and FLAG-tagged plasmids for 24 h; lysates immunoprecipitated with anti-HA beads (or anti-FLAG beads), Western blotting for HA and FLAG
[2] = target: Purified human TREM2 protein (human) (UniProt Q9NZC2); assay: SPR; Biacore, 25 °C; human TREM2 immobilised on a CM5 chip by amine coupling; human MPO at 31.25, 62.5, 125, 250, 500 and 1000 nM; both purified

Substance | binding [1] | binding [2]
FLAG-tagged CTSG (from UniProt P08311) | no binding | 
Purified human MPO (from UniProt P05164 49-745) (ligand) |  | binds
